# From PubChem BioAssay AID330 (DTP/NCI, 2004)
# The list is a part of this screen's results and no random one: it gathers tests that were run many times, whatever their T/C, doses with no T/C, and many T/C values between a quarter and a half above the control. Further doses and runs are listed elsewhere. T/C gives the treated animals as a percentage of the vehicle group. Some entries give survivors of the animals treated and no T/C: the source holds a T/C of zero for them, seemingly a mark for toxic or unscored doses. Some survivor counts are full or nearly so, which does not show that the dose was tolerated: the source hardly ever lists a survival T/C far under the control, and the zero likely stands for such cases as well. Counts of survivors are from the toxicity check (mostly the fifth day) where no day follows; animals may have died later. Schedule codes are those of the source, read here as Q, the interval in days (D) or hours (H), X, the number of doses. Some entries hold several experiments; the results are listed from low to high. Where survival is the endpoint, this PubChem deposit counts one and a half times the control or more as active, and values a quarter to a half above the control carry no call in these data; other NCI protocols may use other cut-offs. Some T/C values carry the count of animals alive at the toxicity check (mostly the fifth day); without a count, all were alive then.
# Tested on: P388 leukemia ip, CD2F1 mice, survival T/C
# Test: NCI In Vivo Anticancer Drug Screen. Data for tumor model P388 Leukemia (intraperitoneal) in CD2F1 (CDF1) mice
# Details: T/C endpoint: median survival time, higher T/C = longer survival
compound,measurement,setting,value
COc1cc(C=Nc2cc(Cl)cc(Cl)c2)ccc1N(CCCl)CCCl,survivor count,"dose: 400.0 mg/kg/injection, schedule: Q04DX003 (ip), vehicle: saline with Tween-80",5 of 6
C=[CH][Sn][CH2]CCC,survivor count,"dose: 50.0 mg/kg/injection, schedule: Q01DX009 (ip), vehicle: Klucel (hydroxypropylcellulose) (HPC)",3 of 5
same,survivor count,"dose: 200.0 mg/kg/injection, schedule: Q01DX009 (ip), vehicle: Klucel (hydroxypropylcellulose) (HPC)",0 of 6
COC(=N)N(C)/N=C/c1ccccc1,survivor count,"dose: 400.0 mg/kg/injection, schedule: Q01DX001 (ip), vehicle: Klucel (hydroxypropylcellulose) (HPC)",1 of 6
CCOC(=O)c1cc(-c2cc(C(=O)OCC)c3ccccc3n2)nc2ccccc12,survivor count,"dose: 50.0 mg/kg/injection, schedule: Q01DX005 (ip), vehicle: saline with Tween-80",6 of 6
same,survivor count,"dose: 200.0 mg/kg/injection, schedule: Q01DX005 (ip), vehicle: saline with Tween-80",6 of 6
O=C1OC(c2ccccc2)CC1N1CCOCC1 (stereo not given),survivor count,"dose: 200.0 mg/kg/injection, schedule: Q04DX003 (ip), vehicle: saline sonified",6 of 6
Oc1ccc(SCc2ccc(NCc3ccccc3)cc2)cc1,T/C,"dose: 100.0 mg/kg/injection, schedule: Q01DX009 (ip), vehicle: saline with Tween-80",127 % of control
same,T/C,"dose: 200.0 mg/kg/injection, schedule: Q01DX009 (ip), vehicle: saline with Tween-80",130 and 134 % of control
O=[C-]C(F)(F)F.[C-]#[O+].[C-]#[O+].[C-]#[O+].[C-]#[O+].[C-]#[O+].[Mn],survivor count,"dose: 200.0 mg/kg/injection, schedule: Q01DX001 (ip), vehicle: other",1 of 6
CCC1(O)CC2CN(CCc3c([nH]c4ccccc34)C(C(=O)OC)(c3cc4c(cc3OC)N(C)C3C(O)(C(N)=O)C(O)C5(CC)C=CCN6CCC43C65)C2)C1 (stereo not given) (tested in a mixture with another compound),T/C,"dose: 0.06 mg/kg/injection, schedule: Q01DX009 (ip), vehicle: water",145 % of control
same,T/C,"dose: 0.06 mg/kg/injection, schedule: Q04DX003 (ip), vehicle: water",125 % of control
same,T/C,"dose: 0.12 mg/kg/injection, schedule: Q04DX003 (ip), vehicle: water",140 % of control
same,T/C,"dose: 0.13 mg/kg/injection, schedule: Q01DX009 (ip), vehicle: water",126 % of control
same,T/C,"dose: 0.25 mg/kg/injection, schedule: Q04DX003 (ip), vehicle: saline, evaluated on day 5",113 and 150 % of control
same,T/C,"dose: 0.25 mg/kg/injection, schedule: Q04DX003 (ip), vehicle: saline, evaluated on day 45",183 % of control
same,T/C,"dose: 0.25 mg/kg/injection, schedule: Q04DX003 (ip), vehicle: saline, evaluated on day 60",166 % of control
same,T/C,"dose: 0.36 mg/kg/injection, schedule: Q01DX009 (ip), vehicle: water",132 % of control
same,T/C,"dose: 0.38 mg/kg/injection, schedule: Q04DX003 (ip), vehicle: saline",148 % of control
same,T/C,"dose: 0.65 mg/kg/injection, schedule: Q04DX003 (ip), vehicle: clinical formulation",148 % of control
same,T/C,"dose: 0.87 mg/kg/injection, schedule: Q04DX003 (ip), vehicle: saline, evaluated on day 5",124 and 203 % of control
same,T/C,"dose: 0.87 mg/kg/injection, schedule: Q04DX003 (ip), vehicle: saline, evaluated on day 10",120 % of control
same,T/C,"dose: 0.87 mg/kg/injection, schedule: Q04DX003 (ip), vehicle: saline, evaluated on day 60",215 % of control
same,T/C,"dose: 1.0 mg/kg/injection, schedule: Q01DX009 (ip), vehicle: water",133 % of control
same,survivor count,"dose: 1.0 mg/kg/injection, schedule: Q04DX003 (ip), vehicle: saline",6 of 6
same,T/C,"dose: 1.3 mg/kg/injection, schedule: Q04DX003 (ip), vehicle: saline, evaluated on day 5",135 and 222 % of control
same,T/C,"dose: 1.3 mg/kg/injection, schedule: Q04DX003 (ip), vehicle: saline, evaluated on day 10",129 % of control
same,T/C,"dose: 1.3 mg/kg/injection, schedule: Q04DX003 (ip), vehicle: saline, evaluated on day 60",206 % of control
same,T/C,"dose: 2.0 mg/kg/injection, schedule: Q04DX003 (ip), vehicle: saline, evaluated on day 5",136 and 222 % of control
same,T/C,"dose: 2.0 mg/kg/injection, schedule: Q04DX003 (ip), vehicle: saline, evaluated on day 10",127 % of control [8 of 9 alive]
same,T/C,"dose: 2.0 mg/kg/injection, schedule: Q04DX003 (ip), vehicle: saline, evaluated on day 60","191, 232, 274 % of control"
same,survivor count,"dose: 2.0 mg/kg/injection, schedule: Q04DX003 (ip), vehicle: saline",5 of 6
same,T/C,"dose: 3.0 mg/kg/injection, schedule: Q04DX003 (ip), vehicle: saline",134 % of control [8 of 9 alive]
same,survivor count,"dose: 4.0 mg/kg/injection, schedule: Q04DX003 (ip), vehicle: saline",7 of 8 and 6 of 6
same,survivor count,"dose: 5.0 mg/kg/injection, schedule: Q04DX003 (ip), vehicle: clinical formulation",7 of 8
